These are yes or no findings as the source states them, for the method shown. In cells and extracts the contact can be indirect. Some results given as binding are weak or reduced against the parent protein; the word gives no strength. Tags and fused reporters may be left off the sequences shown.
Biological target: Myc tagged yes-associated protein1 (Myc-YAP1) (UniProt P46937)
Assay: co-IP; 293T cells co-transfected with Myc-YAP1 and V5-LSR (WT or Y623A); after 24 hours lysates were incubated with the antibody against the Myc tag for one hour, then protein G agarose for three hours, then western blot; the paper calls it a pull-down assay

Amino acid sequences for entries named in this document (tags omitted).
UniProt P46937: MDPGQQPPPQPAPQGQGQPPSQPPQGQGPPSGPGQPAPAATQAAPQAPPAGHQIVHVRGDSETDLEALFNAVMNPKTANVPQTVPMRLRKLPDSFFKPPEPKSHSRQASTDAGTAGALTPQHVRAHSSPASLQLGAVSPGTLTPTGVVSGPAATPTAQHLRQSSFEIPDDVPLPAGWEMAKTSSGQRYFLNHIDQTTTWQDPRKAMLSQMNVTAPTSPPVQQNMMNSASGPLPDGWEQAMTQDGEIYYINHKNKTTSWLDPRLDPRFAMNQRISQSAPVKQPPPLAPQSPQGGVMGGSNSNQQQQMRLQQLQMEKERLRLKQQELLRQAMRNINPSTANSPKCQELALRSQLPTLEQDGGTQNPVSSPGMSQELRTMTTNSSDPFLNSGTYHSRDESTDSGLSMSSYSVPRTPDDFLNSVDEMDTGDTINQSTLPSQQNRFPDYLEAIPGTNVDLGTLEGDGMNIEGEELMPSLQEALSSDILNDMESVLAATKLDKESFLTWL

B1: V5 tagged lipolysis-stimulated lipoprotein receptor, wild type (V5-LSR-WT) (protein, UniProt Q86X29 1-649)
chain: MQQDGLGVGTRNGSGKGRSVHPSWPWCAPRPLRYFGRDARARRAQTAAMALLAGGLSRGLGSHPAAAGRDAVVFVWLLLSTWCTAPARAIQVTVSNPYHVVILFQPVTLPCTYQMTSTPTQPIVIWKYKSFCRDRIADAFSPASVDNQLNAQLAAGNPGYNPYVECQDSVRTVRVVATKQGNAVTLGDYYQGRRITITGNADLTFDQTAWGDSGVYYCSVVSAQDLQGNNEAYAELIVLGRTSGVAELLPGFQAGPIEDWLFVVVVCLAAFLIFLLLGICWCQCCPHTCCCYVRCPCCPDKCCCPEALYAAGKAATSGVPSIYAPSTYAHLSPAKTPPPPAMIPMGPAYNGYPGGYPGDVDRSSSAGGQGSYVPLLRDTDSSVASEVRSGYRIQASQQDDSMRVLYYMEKELANFDPSRPGPPSGRVERAMSEVTSLHEDDWRSRPSRGPALTPIRDEEWGGHSPRSPRGWDQEPAREQAGGGWRARRPRARSVDALDDLTPPSTAESGSRSPTSNGGRSRAYMPPRSRSRDDLYDQDDSRDFPRSRDPHYDDFRSRERPPADPRSHHHRTRDPRDNGSRSGDLPYDGRLLEEAVRKKGSEERRRPHKEEEEEAYYPPAPPPYSETDSQASRERRLKKNLALSRESLVV
B1 was tested, and the binding was “binds”.
